Results on 25 compounds are retold here after the supplement of paper PMC4604168 (melanoma cell lines).

Some of the results follow. Single values are uncertain, as repeats are few or missing.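 Imaging used 1,536-well plates; nuclei positive for cleaved PARP by antibody were divided by total DNA-stained nuclei to yield the apoptosis fraction. Doses for screening kept most cells viable, and cell lines differ markedly in resting and induced cleaved-PARP levels.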

Test systems include WM115; WM1716; WM1745; WM3526; WM3619; WM451Lu.
Assay in all cases: cleaved PARP positive nuclei fraction relative to DMSO control; melanoma cells; higher = more apoptosis
Holding throughout (details): library dose: low library concentration; 72 h

In the case of `O=C(CCCCCCC(=O)Nc1ccccc1)NO` [vorinostat] + c1cc(-c2cnn3cc(-c4ccc(OCCN5CCCCC5)cc4)cnc23)ccn1 [Dorsomorphin] (first compound 0.08 µM, partner dose 0.4 µM), the “cleaved PARP positive nuclei fraction” value with WM115 was 103%; in the test on WM1716, 109%; in the test on WM1745 it was 97.1%; in the test on WM3526, 81.4%; in the test with WM3619 it was 91.2%; with WM451Lu, 135%.

In the case of `Clc1ccc(Nc2nnc(Cc3ccncc3)c3ccccc23)cc1` [vatalanib] + CCN(CC)CCCCNc1ncc2cc(-c3cc(OC)cc(OC)c3)c(NC(=O)NC(C)(C)C)nc2n1 [PD173074] (first compound 2 µM, partner dose 0.1 µM), the “cleaved PARP positive nuclei fraction” value came out at 100% in the test with WM115; 79% in the test on WM1716; 102% in the test on WM1745; 453% in the test with WM3526; 79.2% with WM3619; 65.2% in the test on WM451Lu.

In the case of `O=C(Nc1cccc(Cl)c1)Nc1ncc(CCNc2ncnc3ccsc23)s1` + COc1cc2ncnc(Nc3ccc(Oc4ccccc4)cc3)c2cc1OC [SrcI1] (first compound 0.0008 µM, partner dose 2 µM), the “cleaved PARP positive nuclei fraction” value in the test with WM115 stood at 32.7%; in the test with WM1716, 77.6%; in the test with WM1745, 124%; in the test on WM3526 it was 126%; in the test with WM3619, 59.7%; with WM451Lu it was 58.3%.

Regarding `COc1cc(Nc2ncc(F)c(Nc3ccc4c(n3)NC(=O)C(C)(C)O4)n2)cc(OC)c1OC` [Tamatinib] + C=CCn1c(=O)c2cnc(Nc3ccc(N4CCN(C)CC4)cc3)nc2n1-c1cccc(C(C)(C)O)n1 [MK1775] (first compound 0.4 µM, partner dose 0.02 µM), the “cleaved PARP positive nuclei fraction” value in the test with WM115 came to 157%; with WM1716 it was 73.7%; with WM1745, 122%; in the test with WM3526, 67.6%; with WM3619, 116%; in the test with WM451Lu it was 93.6%.

`C#Cc1cccc(Nc2ncnc3cc(OCCOC)c(OCCOC)cc23)c1` [erlotinib] + CO[C@@H]1[C@H](N(C)C(=O)c2ccccc2)C[C@H]2O[C@]1(C)n1c3ccccc3c3c4c(c5c6ccccc6n2c5c31)C(=O)NC4 [Midostaurin] (first compound 0.8 µM, partner dose 0.08 µM): the “cleaved PARP positive nuclei fraction” value in the test with WM115 was 256%; with WM1716, 156%; with WM1745, 139%; with WM3526, 239%; with WM3619, 127%; in the test on WM451Lu, 98.7%.

On to `O=C(CCCCCCC(=O)Nc1ccccc1)NO` [vorinostat] + N#Cc1c(O)c2c(-c3ccc(-c4ccccc4O)cc3)csc2[nH]c1=O [A769662] (first compound 0.08 µM, partner dose 2 µM), for which the “cleaved PARP positive nuclei fraction” value stood at 69.7% in the test on WM115; 56.7% in the test with WM1716; 100% with WM1745; 67.3% with WM3526; 78.8% in the test with WM3619; 58.9% in the test on WM451Lu.

As for `CC(C)(C)c1cnc(CSc2cnc(NC(=O)C3CCNCC3)s2)o1` + COc1cc2ncnc(Nc3ccc(Oc4ccccc4)cc3)c2cc1OC [SrcI1] (first compound 0.01 µM, partner dose 2 µM), the “cleaved PARP positive nuclei fraction” value with WM115 came out at 64.9%; in the test with WM1716 it was 25%; with WM1745 it was 110%; with WM3526, 74.5%; in the test with WM3619 it was 270%; with WM451Lu, 152%.

`OCc1c[nH]c2ccccc12` [Indole-3-carbinol] + O=C(Nc1ccccc1)c1cc([N+](=O)[O-])ccc1Cl [GW9662] (first compound 0.8 µM, partner dose 2 µM): the “cleaved PARP positive nuclei fraction” value came to 110% in the test with WM115; 92.7% in the test with WM1716; 203% with WM1745; 61.7% with WM3526; 129% in the test with WM3619; 99.5% with WM451Lu.

`C=CCNC1=C2C[C@@H](C)C[C@H](OC)[C@H](O)[C@@H](C)/C=C(\C)[C@H](OC(N)=O)[C@@H](OC)/C=C\C=C(/C)C(=O)NC(=CC1=O)C2=O` [Tanespimycin] + CN(C)S(=O)(=O)c1ccc2c(c1)/C(=C/c1cc3c([nH]1)CCCC3)C(=O)N2 [SU6656] (first compound 0.002 µM, partner dose 0.4 µM): the “cleaved PARP positive nuclei fraction” value in the test with WM115 is 900%; with WM1716, 73.9%; in the test with WM1745 it was 142%; in the test with WM3526 it was 38.2%; in the test on WM3619, 209%; in the test on WM451Lu it was 100%.

`O=C(CCCCCCC(=O)Nc1ccccc1)NO` [vorinostat] + O=c1cc(-c2cccc3c2Sc2ccccc2S3)oc(N2CCOCC2)c1 [KU55933] (first compound 0.08 µM, partner dose 1 µM): the “cleaved PARP positive nuclei fraction” value in the test on WM115 turned out to be 122%; with WM1716, 41.8%; in the test with WM1745, 87.9%; in the test on WM3526, 158%; in the test with WM3619, 82.7%; in the test with WM451Lu it was 48.4%.

As for `Cn1c(Nc2ccc(C(F)(F)F)cc2)nc2cc(Oc3ccnc(-c4ncc(C(F)(F)F)[nH]4)c3)ccc21` + COC(=O)c1sccc1S(=O)(=O)Nc1ccc(Nc2ccccc2)cc1OC [GSK0660] (first compound 0.08 µM, partner dose 1 µM), the “cleaved PARP positive nuclei fraction” value turned out to be 1300% in the test with WM115; 237% with WM1716; 155% with WM1745; 151% in the test on WM3526; 225% in the test with WM3619; 148% with WM451Lu.

Turning to `Clc1ccc(Nc2nnc(Cc3ccncc3)c3ccccc23)cc1` [vatalanib] + COc1ccc2c(c1)CCC1C2CCC2(C)C(NCCCCCCN3C(=O)C=CC3=O)CCC12 [U73122] (first compound 2 µM, partner dose 0.4 µM), the “cleaved PARP positive nuclei fraction” value in the test with WM115 stood at 324%; in the test with WM1716, 142%; in the test with WM1745, 96.7%; in the test on WM3526 it was 135%; with WM3619, 120%; in the test with WM451Lu it was 80.4%.

Regarding `OCc1c[nH]c2ccccc12` [Indole-3-carbinol] + COc1cc(N2CCC(N3CCN(C)CC3)CC2)ccc1Nc1ncc(Cl)c(Nc2ccccc2S(=O)(=O)C(C)C)n1 [NVP-TAE684] (first compound 0.8 µM, partner dose 0.08 µM), the “cleaved PARP positive nuclei fraction” value in the test on WM115 was 200%; with WM1716, 41.8%; in the test on WM1745, 108%; in the test with WM3526 it was 83%; with WM3619, 159%; with WM451Lu, 168%.

Take `C[C@@H]1CCN(C(=O)CC#N)C[C@@H]1N(C)c1ncnc2[nH]ccc12` + Cn1cncc1[C@@](N)(c1ccc(Cl)cc1)c1ccc2c(c1)c(-c1cccc(Cl)c1)cc(=O)n2C [tipifarnib] (first compound 1 µM, partner dose 0.01 µM): the “cleaved PARP positive nuclei fraction” value with WM115 turned out to be 42.7%; in the test on WM1716 it was 68.5%; in the test on WM1745, 102%; with WM3526, 110%; in the test with WM3619, 125%; in the test with WM451Lu, 174%.

Regarding `C=CCNC1=C2C[C@@H](C)C[C@H](OC)[C@H](O)[C@@H](C)/C=C(\C)[C@H](OC(N)=O)[C@@H](OC)/C=C\C=C(/C)C(=O)NC(=CC1=O)C2=O` [Tanespimycin] + O=S(=O)(c1ccccc1)N(CC(F)(F)F)c1ccc(C(O)(C(F)(F)F)C(F)(F)F)cc1 [T0901317] (first compound 0.002 µM, partner dose 1.4 µM), the “cleaved PARP positive nuclei fraction” value is 138% with WM115; 178% in the test with WM1716; 117% in the test on WM1745; 83.1% with WM3526; 89.5% in the test on WM3619; 152% in the test on WM451Lu.

For the compound `O=C(Nc1cccc(Cl)c1)Nc1ncc(CCNc2ncnc3ccsc23)s1` + COc1ccc(-c2ccc3c(N4CCOCC4)nc(N4C[C@@H](C)O[C@@H](C)C4)nc3n2)cc1CO [KU0063794] (first compound 0.0008 µM, partner dose 0.02 µM), the “cleaved PARP positive nuclei fraction” value in the test with WM115 came out at 46%; in the test on WM1716 it was 87.5%; with WM1745, 110%; in the test with WM3526, 41.5%; in the test with WM3619, 86.6%; with WM451Lu, 104%.

For `Nc1cccc2c1CN(C1CCC(=O)NC1=O)C2=O` (stereo not given) [lenalidomide] + Cc1cc(N2CCOCC2)cc2[nH]c(-c3c(NC[C@@H](O)c4cccc(Cl)c4)cc[nH]c3=O)nc12 [BMS536924] (first compound 1 µM, partner dose 0.2 µM), the “cleaved PARP positive nuclei fraction” value came to 172% in the test with WM115; 64.2% in the test with WM1716; 119% in the test with WM1745; 169% in the test on WM3526; 102% in the test on WM3619; 56.4% in the test with WM451Lu.

Turning to `C=CCNC1=C2C[C@@H](C)C[C@H](OC)[C@H](O)[C@@H](C)/C=C(\C)[C@H](OC(N)=O)[C@@H](OC)/C=C\C=C(/C)C(=O)NC(=CC1=O)C2=O` [Tanespimycin] + O=C(Nc1cccc(Cl)c1)Nc1ncc(CCNc2ncnc3ccsc23)s1 [SNS314] (first compound 0.002 µM, partner dose 0.0008 µM), the “cleaved PARP positive nuclei fraction” value turned out to be 305% with WM115; 54% in the test with WM1716; 97.9% in the test with WM1745; 61.8% in the test with WM3526; 103% in the test on WM3619; 124% in the test on WM451Lu.

Regarding `C=CCNC1=C2C[C@@H](C)C[C@H](OC)[C@H](O)[C@@H](C)/C=C(\C)[C@H](OC(N)=O)[C@@H](OC)/C=C\C=C(/C)C(=O)NC(=CC1=O)C2=O` [Tanespimycin] + CCN(CC)CCCCNc1ncc2cc(-c3cc(OC)cc(OC)c3)c(NC(=O)NC(C)(C)C)nc2n1 [PD173074] (first compound 0.002 µM, partner dose 0.1 µM), the “cleaved PARP positive nuclei fraction” value in the test with WM115 amounted to 122%; in the test on WM1716, 237%; in the test with WM1745, 262%; in the test on WM3526 it was 66.3%; with WM3619, 97.4%; with WM451Lu, 109%.

Take `O=C(CCCCCCC(=O)Nc1ccccc1)NO` [vorinostat] + Oc1cc(-c2nc(-c3ccccc3)[nH]c2-c2ccncc2)ccc1Cl [L779450] (first compound 0.08 µM, partner dose 0.2 µM): the “cleaved PARP positive nuclei fraction” value in the test with WM115 is 135%; in the test with WM1716, 92.7%; in the test with WM1745, 86.9%; in the test with WM3526 it was 103%; with WM3619 it was 107%; in the test with WM451Lu, 56%.

In the case of `CO[C@@H]1[C@H](N(C)C(=O)c2ccccc2)C[C@H]2O[C@]1(C)n1c3ccccc3c3c4c(c5c6ccccc6n2c5c31)C(=O)NC4` [Midostaurin] + COc1ccc(-c2ccc3c(N4CCOCC4)nc(N4C[C@@H](C)O[C@@H](C)C4)nc3n2)cc1CO [KU0063794] (first compound 0.08 µM, partner dose 0.02 µM), the “cleaved PARP positive nuclei fraction” value came to 78.7% with WM115; 103% with WM1716; 107% with WM1745; 71.1% with WM3526; 131% in the test on WM3619; 119% in the test with WM451Lu.

As to `Cc1ccc(NC(=O)c2cccc(N(C)C)c2)cc1NC(=O)c1ccc(O)cc1` + N#Cc1c(O)c2c(-c3ccc(-c4ccccc4O)cc3)csc2[nH]c1=O [A769662] (first compound 2 µM, partner dose 2 µM), the “cleaved PARP positive nuclei fraction” value in the test with WM115 stood at 89%; in the test on WM1716, 113%; in the test on WM1745 it was 106%; with WM3526 it was 44%; in the test with WM3619 it was 87.8%; with WM451Lu it was 316%.

On to `OCc1c[nH]c2ccccc12` [Indole-3-carbinol] + COc1ccc(Cl)c(Nc2nc3ccccc3nc2NS(=O)(=O)c2cccc(NC(=O)C(C)(C)N)c2)c1 [XL147] (first compound 0.8 µM, partner dose 0.8 µM), for which the “cleaved PARP positive nuclei fraction” value in the test on WM115 was 117%; in the test with WM1716 it was 76.2%; in the test on WM1745, 80.8%; in the test on WM3526, 814%; with WM3619, 77.5%; in the test on WM451Lu, 114%.

As to `COCC[n+]1c2c(n(Cc3cnccn3)c1C)C(=O)c1ccccc1C2=O` + CC(C)(C)c1cnc(CSc2cnc(NC(=O)C3CCNCC3)s2)o1 [SNS-032] (first compound 0.0004 µM, partner dose 0.01 µM), the “cleaved PARP positive nuclei fraction” value with WM115 came out at 129%; with WM1716 it was 227%; in the test on WM1745, 101%; in the test on WM3526, 60.1%; with WM3619, 101%; with WM451Lu, 73.8%.

For `Cn1nnc2c(C(N)=O)ncn2c1=O` [temozolomide] + c1cc(-c2cnn3cc(-c4ccc(OCCN5CCCCC5)cc4)cnc23)ccn1 [Dorsomorphin] (first compound 2 µM, partner dose 0.4 µM), the “cleaved PARP positive nuclei fraction” value in the test on WM115 was 64.3%; in the test with WM1716 it was 117%; in the test with WM1745, 104%; with WM3526, 227%; in the test on WM3619 it was 86.5%; with WM451Lu, 29.4%.
